Data: PubChem BioAssay AID2685 (National Center for Advancing Translational Sciences (NCATS), 2010)
Some of the results follow. Shown are side measurements of this screen, not its main read-out; they come without a call. Compounds called inactive in the main read-out are mostly missing here. Words in brackets tell the shape of the fitted curve; partial curves, single points and poor fits give uncertain potencies.

Test: qHTS Assay for Lipid Storage Modulators in Drosophila S3 Cells;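 as to cell number change: cells counted by Cell Tracker Red CMTPX staining in the red channel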
Settings: BODIPY lipid droplet fluorescence, 18-24 h; for cell number change: measured here: cell count max response, cells fed with added oleic acid
How it was run: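 Drosophila S3 cells got compounds at several concentrations plus oleic acid (400 uM solution). Laser-scanning cytometry with 488 nm excitation read lipid droplets at 500-530 nm and cells at 575-640 nm. Percent activity was relative to 20 uM Triacsin C.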

[1] = measured here: cell number channel AC50, cells fed with added oleic acid
[2] = measured here: lipid fluorescence (Fed channel) AC50, cells fed with added oleic acid

SMILES	AC50 [1]	cell number change [%]	AC50 [2]
O=C(CCN1Cc2ccccc2C1)c1ccc2c(c1)OCCO2	0.92 µM [rising, single point]	–	–
Nn1c(CSc2ccccn2)nc2ccccc2c1=O	–	-2.45	0.103 µM [rising, full curve, poor fit]
CCn1ncc(Br)c1C(=O)Nc1cccc(C(C)=O)c1	–	-6.38	–
CCOc1ccc(CCNc2nc3ccccc3n3cnnc23)cc1OCC	–	17.8	3.66 µM [rising, single point]
Cc1ccc(N(CN2C(=O)C3CC=CCC3C2=O)C(=O)c2ccco2)cc1Cl (configuration not stated)	–	3.59	–
COc1ccc(S(=O)(=O)N2CCCCCC2)cc1C(=O)Nc1ccc(C(=O)N(C)C)cc1	4.61 µM [rising, single point]	–	–
Cc1c(NC(=O)COC(=O)c2c3c(nc4ccccc24)CCCC3)c(=O)n(-c2ccccc2)n1C	–	7.3	0.58 µM [rising, full curve]
CC(=O)Nc1sc2c(c1-c1nc3ccccc3s1)CCN(C(C)C)C2	–	-26.4	–
Cc1ccc2c(c1)/C(=C/c1ccco1)C(=O)N2	23.1 µM [falling, single point]	-39.8	23.1 µM [falling, single point]
N#CCCN1CCN(C2=NC(=O)/C(=C\c3cccs3)S2)CC1	29.1 µM [rising, single point]	64.5	–
CC(=O)N1CN(CCCn2ccnc2)Cc2c1sc1c2CCCC1	–	11.6	23.1 µM [rising, single point]
COCCN(C(=O)COC(=O)c1sccc1C)c1c(N)n(Cc2ccccc2)c(=O)[nH]c1=O	–	24.3	11.6 µM [falling, single point]
Cc1cc(=O)[nH]c(SCC(=O)Nc2ccc(Br)cc2)n1	–	-0.584	14.6 µM [rising, partial curve]
Cc1ccc(N2C(=O)CC3(CC4C=CC3C4)C2=O)cc1 (configuration not stated)	–	13.6	–
O=C(O)CCN1CCOCC1	–	10.1	29.1 µM [rising, single point]
Cc1cc(N2CCN(C)CC2)nc2ccc(NC(=S)NCCCN3CCN(C)CC3)cc12	9.2 µM [falling, partial curve]	-34.3	7.31 µM [falling, partial curve, poor fit]
Nc1nc(CSc2n[nH]c(-c3ccccc3)n2)nc(Nc2ccccc2)n1	–	–	0.411 µM [falling, partial curve, poor fit]
O=[N+]([O-])c1cc(/C=N/N/C(=N/c2ccccn2)c2ccccn2)ccc1O	29.1 µM [falling, single point]	-32.5	16.4 µM [falling, partial curve]
COc1ccccc1OCc1nc2ccccc2s1	–	24	16.4 µM [rising, partial curve]
N#Cc1cccc(NC(=O)CC2CCCCC2)c1	2.31 µM [falling, full curve, poor fit]	-30.7	–

SMILES	AC50 [1]	cell number change [%]	AC50 [2]
CCCCCC1CC(CC(=O)O)C(=O)O1 (configuration not stated)	58 µM [falling, partial curve, poor fit]	-32.5	23.1 µM [falling, partial curve]
Cc1cc(=O)oc2ccc(OC(=O)c3cccc(S(=O)(=O)N4CCOCC4)c3)cc12	0.092 µM [falling, full curve, poor fit]	–	–
CN(Cc1ccc(-n2cccn2)cc1)C(=O)c1cnn2c1NC(c1ccco1)CC2C(F)(F)F (configuration not stated)	6.51 µM [rising, partial curve, poor fit]	43.9	0.13 µM [rising, full curve, poor fit]
COC(=O)C1=C(C(=O)OC)[C@@H]2N(Cc3ccccc3)c3ccccc3[C@@]23C[C@@H](C(=O)OC)N(C(=O)CC(C)C)C3=N1	–	-23.3	5.17 µM [falling, full curve]
CC(=O)c1ccc(N(C(=O)c2ccco2)C(C(=O)NC2CCCC2)c2cccs2)cc1 (configuration not stated)	–	11.5	–
Cc1cccc(C)c1NC(=O)NC1(C(=O)NCC2CCCO2)CCCCC1 (configuration not stated)	–	10.5	–
CC(OC(=O)C1=NN(c2ccccc2)C(=O)CC1)C(=O)NC1CCCCC1C (configuration not stated)	–	-13.6	32.6 µM [falling, partial curve, poor fit]
CCc1ccc2oc(-c3ccc(NC(C)=O)cc3)nc2c1	–	–	29.1 µM [falling, single point]
Cc1cnc(C)c(N2CCN(Cc3nc(-c4ccccc4)no3)CC2)n1	–	9.81	0.00517 µM [rising, full curve, poor fit]
CCOc1cc(/C=N/N=C2/NC(=O)C(CC(=O)O)S2)ccc1OCc1ccccc1Cl (configuration not stated)	5.8 µM [falling, single point]	21.6	20.6 µM [falling, single point]
CC(=O)NC(Cc1ccc(F)cc1)C(=O)NC1CCN(C(=O)NCc2ccccc2)CC1 (configuration not stated)	–	–	29.1 µM [falling, single point]
Cc1[nH]nc(Nc2ccc(Br)cc2)c1[N+](=O)[O-]	–	19.6	4.11 µM [rising, partial curve]
Cc1c(NS(=O)(=O)c2ccc3c(c2)OCCO3)cccc1-c1nc2cccnc2s1	–	-2.33	29.1 µM [falling, single point]
CCCCn1c(N)c(N(CCC(C)C)C(=O)c2cc(CC)c(C)s2)c(=O)[nH]c1=O	–	12.5	–
COCCn1cnnc1SCC(=O)Nc1sccc1C(N)=O	2.06 µM [falling, partial curve, poor fit]	-27.5	5.17 µM [falling, full curve]
Nn1c(COc2cccc(Cl)c2)nc2ccccc2c1=O	–	-14.2	20.6 µM [rising, single point]
O=S(=O)(Nc1ccc(N2CCCCC2)cc1)c1cccs1	–	-21.8	0.58 µM [rising, single point]
O=C(COc1ccccc1)Nc1nc2ccccc2[nH]1	2.59 µM [rising, partial curve]	–	2.31 µM [rising, partial curve]
N#Cc1cccc(NC(=O)COC(=O)c2ccccc2Sc2ccccc2C#N)c1	–	-11.8	18.4 µM [falling, single point]

Single records (already shown). Order of values: AC50 [1] | cell number change [%] | AC50 [2]
`CCc1ccc2oc(-c3ccc(NC(C)=O)cc3)nc2c1` as listed: – | – | 29.1 µM [falling, single point]
`COCCn1cnnc1SCC(=O)Nc1sccc1C(N)=O` as listed: 2.06 µM [falling, partial curve, poor fit] | -27.5 | 5.17 µM [falling, full curve]
